These are yes or no findings as the source states them, for the method shown. Some entries that bind do so weakly or less than the wild type. Where a sequence is shown, tags or fusion partners need not be part of it.
Target: Polyhistidine-tagged DsRed K83R (Discosoma species)
Experiment: SDS-PAGE without heating (200 mM DTT)

B1: Polyhistidine-tagged DsRed K83R (protein)
chain: MRGSHHHHHHGMASMTGGQQMGRDLYDDDDKDPMRSSKNVIKEFMRFKVRMEGTVNGHEFEIEGEGEGRPYEGHNTVKLKVTKGGPLPFAWDILSPQFQYGSKVYVKHPADIPDYRKLSFPEGFKWERVMNFEDGGVVTVTQDSSLQDGCFIYKVKFIGVNFPSDGPVMQKKTMGWEASTERLYPRDGVLKGEIHKALKLKDGGHYLVEFKSIYMAKKPVQLPGYYYVDSKLDITSHNEDYTIVEQYERTEGRHHLFL
  binding: binds

Reference: patent publication US20040259165A1 (published 2004)
